What was measured:
Assay in all cases: activity assay
[1] = molecular target: T7 gp2.5-Δ21C (Bacteriophage T7) (UniProt P03696); details: hot-start PCR, 1 ug; reduces primer-dimers; indirect evidence; purified recombinant protein
[2] = molecular target: T7 gp2.5 SSB wild-type (Bacteriophage T7) (UniProt P03696); details: hot-start PCR; reduces primer-dimers, more specific product; effect rises up to 2 ug per 25 ul; indirect evidence of primer binding; purified recombinant protein
[3] = molecular target: T7 gp2.5-F232L (Bacteriophage T7) (UniProt P03696); details: hot-start PCR, 1 ug; reduces primer-dimers; indirect evidence; purified recombinant protein

Measured: activity on this sequence

GAGGTTCCTACAGGCACCTGCCCAG / CAAAATCACCCCTCACAGTACTCTG [Numb forward and reverse PCR primers]
active: all assays above
